# Assay results from the supplement of paper PMC12819154, “High-throughput peptide-centric local stability assay extends protein–ligand identification to membrane proteins, tissues and bacteria” (Nature Structural & Molecular Biology, 2025).
# Amino acid sequences for entries named in this document (tags omitted). A change or cut given only in a name is not applied to a line headed by its entry.
# UniProt Q9BS31: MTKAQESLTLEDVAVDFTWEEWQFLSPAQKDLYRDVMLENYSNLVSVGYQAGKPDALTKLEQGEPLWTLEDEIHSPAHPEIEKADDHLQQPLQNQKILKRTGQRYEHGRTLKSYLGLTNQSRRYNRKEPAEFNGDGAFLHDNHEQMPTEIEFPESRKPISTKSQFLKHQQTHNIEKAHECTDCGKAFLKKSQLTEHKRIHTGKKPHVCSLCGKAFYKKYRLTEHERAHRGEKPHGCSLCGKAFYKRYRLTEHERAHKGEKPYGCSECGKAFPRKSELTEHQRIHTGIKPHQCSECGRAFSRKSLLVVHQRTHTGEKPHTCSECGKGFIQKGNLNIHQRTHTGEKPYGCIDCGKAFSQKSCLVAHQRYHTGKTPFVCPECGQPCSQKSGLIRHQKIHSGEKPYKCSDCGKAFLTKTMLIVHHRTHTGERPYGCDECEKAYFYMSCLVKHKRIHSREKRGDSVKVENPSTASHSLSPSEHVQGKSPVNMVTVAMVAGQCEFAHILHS
# UniProt Q99612: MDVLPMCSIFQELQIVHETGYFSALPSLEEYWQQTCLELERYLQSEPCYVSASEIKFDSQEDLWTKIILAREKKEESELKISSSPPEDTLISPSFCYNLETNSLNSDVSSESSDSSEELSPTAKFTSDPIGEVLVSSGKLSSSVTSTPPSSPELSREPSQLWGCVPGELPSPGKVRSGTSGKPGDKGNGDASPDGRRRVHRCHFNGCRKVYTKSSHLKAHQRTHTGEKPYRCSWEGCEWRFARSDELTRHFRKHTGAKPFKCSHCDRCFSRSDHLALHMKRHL
# UniProt Q9BVN2: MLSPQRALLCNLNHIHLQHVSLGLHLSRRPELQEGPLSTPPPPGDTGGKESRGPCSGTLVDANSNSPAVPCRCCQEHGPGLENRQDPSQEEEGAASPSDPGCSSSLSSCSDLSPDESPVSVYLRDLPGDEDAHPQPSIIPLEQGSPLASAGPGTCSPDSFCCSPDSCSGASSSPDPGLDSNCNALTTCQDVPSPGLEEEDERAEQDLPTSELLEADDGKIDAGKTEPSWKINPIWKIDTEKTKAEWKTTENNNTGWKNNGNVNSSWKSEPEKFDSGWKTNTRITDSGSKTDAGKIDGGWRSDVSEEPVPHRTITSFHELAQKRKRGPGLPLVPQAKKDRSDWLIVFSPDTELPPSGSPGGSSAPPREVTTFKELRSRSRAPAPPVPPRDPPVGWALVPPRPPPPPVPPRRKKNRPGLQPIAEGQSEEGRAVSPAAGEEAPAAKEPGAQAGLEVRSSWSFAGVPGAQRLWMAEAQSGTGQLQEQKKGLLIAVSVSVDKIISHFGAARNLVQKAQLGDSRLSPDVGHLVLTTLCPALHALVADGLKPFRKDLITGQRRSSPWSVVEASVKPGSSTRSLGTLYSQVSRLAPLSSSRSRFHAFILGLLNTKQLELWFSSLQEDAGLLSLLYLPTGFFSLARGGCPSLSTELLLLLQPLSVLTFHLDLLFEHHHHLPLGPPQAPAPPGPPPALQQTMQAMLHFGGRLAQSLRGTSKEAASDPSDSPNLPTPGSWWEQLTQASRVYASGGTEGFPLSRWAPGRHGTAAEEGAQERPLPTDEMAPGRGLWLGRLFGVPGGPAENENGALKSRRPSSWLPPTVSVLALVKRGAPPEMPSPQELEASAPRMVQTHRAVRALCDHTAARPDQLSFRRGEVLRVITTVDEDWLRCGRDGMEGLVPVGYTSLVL
# UniProt Q99683: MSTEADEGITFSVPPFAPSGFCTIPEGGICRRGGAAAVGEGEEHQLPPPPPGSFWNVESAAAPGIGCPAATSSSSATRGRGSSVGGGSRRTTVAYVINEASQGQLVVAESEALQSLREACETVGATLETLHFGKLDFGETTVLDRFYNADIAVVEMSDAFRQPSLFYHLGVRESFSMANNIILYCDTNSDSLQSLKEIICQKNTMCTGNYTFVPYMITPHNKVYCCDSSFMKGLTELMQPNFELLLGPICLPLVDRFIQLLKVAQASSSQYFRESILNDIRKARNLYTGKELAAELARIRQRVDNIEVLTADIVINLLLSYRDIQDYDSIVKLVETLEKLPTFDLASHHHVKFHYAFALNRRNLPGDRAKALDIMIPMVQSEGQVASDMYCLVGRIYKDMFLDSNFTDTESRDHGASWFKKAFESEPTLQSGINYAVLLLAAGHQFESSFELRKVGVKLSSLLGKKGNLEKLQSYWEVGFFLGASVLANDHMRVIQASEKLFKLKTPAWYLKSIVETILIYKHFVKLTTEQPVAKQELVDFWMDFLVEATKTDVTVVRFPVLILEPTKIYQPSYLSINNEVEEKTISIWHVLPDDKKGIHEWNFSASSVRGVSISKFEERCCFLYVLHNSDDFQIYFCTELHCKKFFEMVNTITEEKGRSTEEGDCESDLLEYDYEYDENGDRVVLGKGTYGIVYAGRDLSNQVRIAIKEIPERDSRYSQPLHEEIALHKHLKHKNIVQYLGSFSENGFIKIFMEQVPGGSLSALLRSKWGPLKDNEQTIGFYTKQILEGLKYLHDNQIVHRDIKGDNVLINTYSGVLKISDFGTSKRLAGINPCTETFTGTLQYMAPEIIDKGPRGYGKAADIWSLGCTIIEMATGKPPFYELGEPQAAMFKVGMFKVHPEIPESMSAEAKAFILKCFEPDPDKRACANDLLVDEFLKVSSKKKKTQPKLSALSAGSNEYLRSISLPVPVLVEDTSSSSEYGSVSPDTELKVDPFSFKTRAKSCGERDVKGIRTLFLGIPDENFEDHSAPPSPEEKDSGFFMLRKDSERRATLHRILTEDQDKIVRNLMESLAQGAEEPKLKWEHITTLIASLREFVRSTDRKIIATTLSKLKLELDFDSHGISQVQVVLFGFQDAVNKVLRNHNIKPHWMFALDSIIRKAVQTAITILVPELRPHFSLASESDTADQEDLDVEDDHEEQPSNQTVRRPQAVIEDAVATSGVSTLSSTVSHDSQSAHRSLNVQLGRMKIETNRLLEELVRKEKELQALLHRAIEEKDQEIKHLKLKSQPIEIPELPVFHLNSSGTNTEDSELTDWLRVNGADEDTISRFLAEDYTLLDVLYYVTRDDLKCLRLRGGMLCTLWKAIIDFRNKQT
# UniProt Q9BS26: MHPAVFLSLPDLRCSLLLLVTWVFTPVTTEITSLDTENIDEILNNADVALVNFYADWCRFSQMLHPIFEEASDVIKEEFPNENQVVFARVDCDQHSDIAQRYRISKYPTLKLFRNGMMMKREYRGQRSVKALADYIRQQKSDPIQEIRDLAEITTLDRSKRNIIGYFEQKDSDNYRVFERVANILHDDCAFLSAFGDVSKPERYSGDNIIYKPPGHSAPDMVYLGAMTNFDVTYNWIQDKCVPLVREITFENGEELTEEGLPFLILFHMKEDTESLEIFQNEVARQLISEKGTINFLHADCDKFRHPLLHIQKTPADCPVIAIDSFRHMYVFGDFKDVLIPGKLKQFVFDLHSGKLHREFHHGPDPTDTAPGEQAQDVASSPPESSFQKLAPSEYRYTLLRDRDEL
# UniProt Q9BT25: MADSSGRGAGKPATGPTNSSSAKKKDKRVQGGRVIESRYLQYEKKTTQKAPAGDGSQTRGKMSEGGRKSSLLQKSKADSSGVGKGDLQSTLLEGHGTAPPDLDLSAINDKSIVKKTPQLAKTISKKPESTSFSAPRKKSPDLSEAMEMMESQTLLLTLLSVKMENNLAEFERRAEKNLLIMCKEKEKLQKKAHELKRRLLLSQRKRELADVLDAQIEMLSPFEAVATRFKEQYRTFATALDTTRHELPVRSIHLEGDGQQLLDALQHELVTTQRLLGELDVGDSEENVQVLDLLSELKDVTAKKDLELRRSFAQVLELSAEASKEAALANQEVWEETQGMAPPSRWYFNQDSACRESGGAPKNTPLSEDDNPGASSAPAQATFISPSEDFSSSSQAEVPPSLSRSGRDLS
# UniProt Q9BPX5, whole entry: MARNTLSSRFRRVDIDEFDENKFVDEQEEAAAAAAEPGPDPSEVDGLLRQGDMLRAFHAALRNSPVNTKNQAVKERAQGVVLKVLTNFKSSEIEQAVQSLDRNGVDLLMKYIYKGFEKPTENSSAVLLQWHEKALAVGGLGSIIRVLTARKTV
# UniProt Q99551: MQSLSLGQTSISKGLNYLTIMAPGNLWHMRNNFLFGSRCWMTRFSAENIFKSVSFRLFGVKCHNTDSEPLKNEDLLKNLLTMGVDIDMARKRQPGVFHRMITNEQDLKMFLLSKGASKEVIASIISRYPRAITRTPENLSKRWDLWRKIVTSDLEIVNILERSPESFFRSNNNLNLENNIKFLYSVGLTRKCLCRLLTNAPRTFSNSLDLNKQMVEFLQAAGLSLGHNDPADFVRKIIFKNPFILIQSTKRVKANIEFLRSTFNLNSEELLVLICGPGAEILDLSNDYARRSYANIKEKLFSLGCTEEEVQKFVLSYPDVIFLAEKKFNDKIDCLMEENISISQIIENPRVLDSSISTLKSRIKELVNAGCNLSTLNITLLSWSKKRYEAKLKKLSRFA
# UniProt Q9BSJ2, whole entry: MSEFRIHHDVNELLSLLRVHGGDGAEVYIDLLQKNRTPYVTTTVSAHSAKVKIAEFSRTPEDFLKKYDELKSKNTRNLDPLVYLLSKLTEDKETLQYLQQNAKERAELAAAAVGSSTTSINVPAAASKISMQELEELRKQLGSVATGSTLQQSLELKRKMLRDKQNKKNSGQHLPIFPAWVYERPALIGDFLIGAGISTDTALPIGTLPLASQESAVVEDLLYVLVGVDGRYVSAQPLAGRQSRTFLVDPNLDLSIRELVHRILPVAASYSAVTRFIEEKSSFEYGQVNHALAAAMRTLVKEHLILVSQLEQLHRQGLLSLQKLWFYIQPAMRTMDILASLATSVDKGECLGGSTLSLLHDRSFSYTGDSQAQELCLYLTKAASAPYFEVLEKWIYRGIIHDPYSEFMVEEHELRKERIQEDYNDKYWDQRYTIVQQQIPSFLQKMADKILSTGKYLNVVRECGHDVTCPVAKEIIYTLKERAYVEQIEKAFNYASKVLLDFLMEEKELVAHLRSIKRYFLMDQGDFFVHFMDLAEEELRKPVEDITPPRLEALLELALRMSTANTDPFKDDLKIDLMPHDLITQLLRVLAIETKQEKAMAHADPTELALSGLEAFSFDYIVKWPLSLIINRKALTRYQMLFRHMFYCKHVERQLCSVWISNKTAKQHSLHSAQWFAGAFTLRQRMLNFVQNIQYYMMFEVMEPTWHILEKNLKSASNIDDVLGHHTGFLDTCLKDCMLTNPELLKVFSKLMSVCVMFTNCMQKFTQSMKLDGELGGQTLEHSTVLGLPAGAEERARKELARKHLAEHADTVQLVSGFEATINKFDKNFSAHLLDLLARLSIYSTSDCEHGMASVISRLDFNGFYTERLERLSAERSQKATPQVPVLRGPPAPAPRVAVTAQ
# UniProt Q99547: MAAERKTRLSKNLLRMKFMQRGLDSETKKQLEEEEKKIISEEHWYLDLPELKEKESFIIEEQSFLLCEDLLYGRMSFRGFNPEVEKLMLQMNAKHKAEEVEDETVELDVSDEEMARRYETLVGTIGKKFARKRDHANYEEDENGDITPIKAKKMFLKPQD
# UniProt Q9BTE6: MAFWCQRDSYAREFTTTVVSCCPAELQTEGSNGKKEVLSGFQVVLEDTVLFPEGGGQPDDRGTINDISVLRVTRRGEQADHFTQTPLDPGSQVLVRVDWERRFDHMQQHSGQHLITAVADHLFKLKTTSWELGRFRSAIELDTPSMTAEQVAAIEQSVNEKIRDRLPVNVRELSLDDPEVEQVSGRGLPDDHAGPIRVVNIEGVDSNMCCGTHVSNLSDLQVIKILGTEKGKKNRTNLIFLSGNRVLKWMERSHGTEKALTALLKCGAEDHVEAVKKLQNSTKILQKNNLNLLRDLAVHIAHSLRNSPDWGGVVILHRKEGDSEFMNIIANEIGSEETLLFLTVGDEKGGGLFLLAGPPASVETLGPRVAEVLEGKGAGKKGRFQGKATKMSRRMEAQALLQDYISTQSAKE
# UniProt Q9BU20: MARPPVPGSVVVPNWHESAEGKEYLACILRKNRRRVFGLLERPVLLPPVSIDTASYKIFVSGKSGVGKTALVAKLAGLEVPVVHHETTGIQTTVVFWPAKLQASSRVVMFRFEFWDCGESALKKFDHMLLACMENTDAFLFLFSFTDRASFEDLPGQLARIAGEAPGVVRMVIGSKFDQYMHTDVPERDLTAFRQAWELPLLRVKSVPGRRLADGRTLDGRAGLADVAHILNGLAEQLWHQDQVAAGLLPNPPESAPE
# UniProt Q9BPZ3: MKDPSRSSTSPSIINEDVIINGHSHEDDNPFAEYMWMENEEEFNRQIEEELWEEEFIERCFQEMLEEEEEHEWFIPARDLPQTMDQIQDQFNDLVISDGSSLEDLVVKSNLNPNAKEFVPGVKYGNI
# UniProt Q9BTT0: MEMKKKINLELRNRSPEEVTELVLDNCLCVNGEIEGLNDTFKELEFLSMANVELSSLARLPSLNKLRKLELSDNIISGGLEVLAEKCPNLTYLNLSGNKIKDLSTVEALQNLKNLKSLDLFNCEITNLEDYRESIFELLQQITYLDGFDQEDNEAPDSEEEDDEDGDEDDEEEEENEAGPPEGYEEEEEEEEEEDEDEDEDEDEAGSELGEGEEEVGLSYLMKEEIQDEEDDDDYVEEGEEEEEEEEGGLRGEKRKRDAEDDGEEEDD
# Some of the results follow. Most entries show no effect beyond the scatter of the controls.
# Compound: CN[C@@H]1C[C@H]2O[C@@](C)([C@@H]1OC)n1c3ccccc3c3c4c(c5c6ccccc6n2c5c31)C(=O)NC4 [staurosporine]
# Test: log2 fold change of tryptic peptide abundance, ligand vs vehicle (limited proteolysis) (log2 ratio); higher = more trypsin-susceptible (destabilized)
# Conditions: ligand concentration: 20 uM; sample: K562 cleared lysate; digestion: 4 min, 22 C (HT-PELSA RT4min, Orbitrap Astral)
row,Target,log2 fold change
1,"FAM118B (peptide sequence: VLEWAQEK, peptide start residue: 190) (UniProt Q9BPY3)",0.141
2,"UniProt Q9BS31 (peptide sequence: SYLGLTNQSR, peptide start residue: 113)",-0.31
3,"UniProt Q99612 (peptide sequence: SDHLALHMKR, peptide start residue: 351)",0.804
4,"ATF6B (peptide sequence: LSTEPSSEALGVGEVLHVK, peptide start residue: 107) (UniProt Q99941)",0.33
5,"PTDSS2 (peptide sequence: DAGGPRPESPVPAGR, peptide start residue: 8) (UniProt Q9BVG9)",-0.00409
6,"UniProt Q9BPX6 (peptide sequence: KTADLAPHPEEK, peptide start residue: 88)",0.52
7,"PTPN18 (peptide sequence: ADGVCSTVAGSRPENVR, peptide start residue: 42) (UniProt Q99952)",0.287
8,"RUSC1 (peptide sequence: FHAFILGLLNTK, peptide start residue: 596) (UniProt Q9BVN2)",-0.391
9,"UniProt Q99683 (peptide sequence: DSGFFMLR, peptide start residue: 1038)",0.102
10,"UniProt Q9BS26 (peptide sequence: VDCDQHSDIAQR, peptide start residue: 90)",0.507
11,"UniProt Q9BT25 (peptide sequence: WYFNQDSACRESGGAPK, peptide start residue: 346)",-0.397
12,"NUDT12 (peptide sequence: LLNYAGEVPR, peptide start residue: 209) (UniProt Q9BQG2)",-0.0482
13,"ARPC5L (peptide sequence: ERAQGVVLK, peptide start residue: 75) (UniProt Q9BPX5)",0.221
14,"UniProt Q99551 (peptide sequence: KIVTSDLEIVNILER, peptide start residue: 148)",0.506
15,"TUBGCP2 (peptide sequence: NRTPYVTTTVSAHSAK, peptide start residue: 35) (UniProt Q9BSJ2)",0.868
16,"UTP23 (peptide sequence: HLKEEQGLVK, peptide start residue: 177) (UniProt Q9BRU9)",0.301
17,"UniProt Q9BV86 (peptide sequence: TYLGEEGKR, peptide start residue: 102)",0.225
18,"PIK3R4 (peptide sequence: KIIEGTEVVQEIQNK, peptide start residue: 1293) (UniProt Q99570)",0.545
19,"MPHOSPH6 (peptide sequence: DHANYEEDENGDITPIKAK, peptide start residue: 134) (UniProt Q99547)",-0.616
20,"AARSD1 (peptide sequence: EFTTTVVSCCPAELQTEGSNGKK, peptide start residue: 13) (UniProt Q9BTE6)",0.37
21,"MYD88 (peptide sequence: LIPIKYK, peptide start residue: 252) (UniProt Q99836)",0.301
22,"CPLANE2 (peptide sequence: IAGEAPGVVR, peptide start residue: 161) (UniProt Q9BU20)",0.268
23,"PAIP2 (peptide sequence: CFQEMLEEEEEHEWFIPAR, peptide start residue: 60) (UniProt Q9BPZ3)",0.641
24,"ANP32E (peptide sequence: KKINLELR, peptide start residue: 5) (UniProt Q9BTT0)",0.293
25,"GRWD1 (peptide sequence: LLQVVEEPQALAAFLR, peptide start residue: 183) (UniProt Q9BQ67)",-0.381
26,"MED18 (peptide sequence: AGAPWHLR, peptide start residue: 79) (UniProt Q9BUE0)",0.179
27,"UniProt Q9BVL2 (peptide sequence: KMFLGDAVDVFETRR, peptide start residue: 422)",0.972

# Exported tab-delimited: entries from further up
row	Target	log2 fold change
12	NUDT12 (peptide sequence: LLNYAGEVPR, peptide start residue: 209) (UniProt Q9BQG2)	-0.0482
13	ARPC5L (peptide sequence: ERAQGVVLK, peptide start residue: 75) (UniProt Q9BPX5)	0.221
